The supplement of paper PMC7024190
Counter-ions that a name gives are not always drawn. Some of the results follow. This data set is noisy: repeats of one test often differ as much as different tests do.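 Human embryonic kidney cells were transiently transfected with a plasmid bearing a Renilla luciferase gene under the HSV-TK promoter. This first-round screen tests roughly ten thousand compounds for ones that increase reporter output.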

How the values were obtained:
HEK 293FT [1] = assay: log relative Renilla luciferase luminescence (reporter expression vs reference, reference not stated) (log (base not stated)); higher = higher recombinant reporter expression; conditions: 10 µM; time after transfection 48 h
HEK 293FT [2] = assay: as above; conditions: 10 µM; time after transfection 48 h; remark: listed apart in the source

Compound	log (HEK 293FT [1])	log (HEK 293FT [2])
Oc1ccc2c3c1O[C@H]1[C@@H](O)CC[C@@]4(O)[C@@H](C2)N(CC2CCC2)CC[C@]314 [Nalbuphine]	0.0535	
C#CCN(C)[C@H](C)Cc1ccccc1 [Benzeneethanamine, N,Alpha-dimethyl-N-2-propynyl-(R)- [CAS]]	0.138	
O=P(N1CC1)(N1CC1)N1CCN(P(=O)(N2CC2)N2CC2)CC1 [Dipin]		0.0518
Oc1c(Br)cc(-c2cc(Br)c(O)c(Br)c2O)c(O)c1Br [Tebrofen]		0.0874
CCC1(c2ccccc2)C(=O)N(COC)C(=O)N(COC)C1=O [Eterobarb]		-1.36
COC(=O)N1CCN(C(=O)Cc2ccc(Cl)c(Cl)c2)C(CN2CCCC2)C1 (stereo not given)	-0.0839	
C[C@]12CC[C@H](O)C[C@H]1CC[C@@H]1[C@@H]2CC[C@]2(C)[C@@H](C3=CC(=O)OC3)CC[C@]12O [Digitoxigenin]		-1.33
c1cnc(N2CCNCC2)nc1 [Pyrimidinylpiperazine]		0.0329
Cc1[nH]c(=O)n(C(C)(C)C)c(=O)c1Cl [Terbacil]		-0.0781
COc1ccc(CCN)cc1OC [Homoveratrylamine]	0.0264	
CNC1=Nc2ccc(Cl)cc2C(c2ccccc2)=[N+]([O-])C1	0.0275	
CC1(C)S[C@@H]2[C@H](N)C(=O)N2[C@H]1C(=O)O [Aminopenicillanic acid]		0.0695
CC[C@@H]1C=CC=CC[C@H](C)[C@@H](O)[C@@H](C)C(=O)[C@H](C)[C@@H](O)[C@H](C)C(=O)[C@H](C)[C@@H](O)[C@H](C)C=CC(=O)O[C@H]2[C@@H](C)[C@@H](CC1)O[C@@]1(CC[C@@H](C)[C@@H](C[C@H](C)O)O1)[C@@H]2C	-0.498	
C[C@]12CC[C@H]3[C@@H](CCC4=CC(=O)CC[C@@H]43)[C@@H]1CC[C@@H]2O [19-Nortestosterone]	-1.24	
Cc1nc2ccccc2c(=O)n1-c1ccccc1Cl [Mecloqualone]		0.055
Nc1nsc(N)n1 [Amtizole]		0.0362
C[C@]12CC[C@H](O)C[C@@]1(O)CC[C@@H]1[C@@H]2CC[C@]2(C)[C@@H](C3=CC(=O)OC3)CC[C@]12O [Periplogenin]		-1.1
CCOC(=O)c1cncn1[C@H](C)c1ccccc1 [Etomidate; D-isomer]		-0.0545
C[N+]1(C)CCN(c2ccccc2)CC1	-0.386	
COc1oc([C@H]2C/C(=C/C(C)=C/c3ccc([N+](=O)[O-])cc3)CO2)c(C)c(=O)c1C [Aureothin]		-1.27

Compound	log (HEK 293FT [1])	log (HEK 293FT [2])
CN1C(=O)N(C)C2C1N(C)C(=O)N2C (stereo not given) [Mebicar]		-0.00589
COc1ccc2[nH]cc(CCN(C)C)c2c1 [Methoxydimethyltryptamine]		0.0125
FC(F)(F)c1cccc(N2CCNCC2)c1	0.0994	
COc1ccc(C(CN(C)C)C2(O)CCCCC2)cc1 (stereo not given)	-0.0832	
CC(=O)OC1CN2CCC1CC2 (stereo not given) [Aceclidine Salicylate]		0.13
COc1ccn(C)c(=O)c1C#N [Ricinine]		-0.0795
Cc1nnc2n1-c1ccc(Cl)cc1C(c1ccccc1)=NC2 [Alprazolam]	0.337	-0.0746
NNC(=O)CN1C(=O)CN=C(c2ccccc2)c2cc(Br)ccc21 [Gidazepam]		0.109
COc1ccc2c(c1)[C@]13CCCC[C@@H]1[C@H](C2)N(C)CC3 [d-3-Methoxy-N-methylmorphinan hydrobromide]	-0.172	
O=C1CN=C(c2ccccc2)c2cc([N+](=O)[O-])ccc2N1 [Nitrazepam]	-0.133	
CCN(CC)CCOC(=O)C(O)(c1ccccc1)c1ccccc1	-0.0839	
CC1CC(C)C(=O)C(C(O)CC2CC(=O)NC(=O)C2)C1 (stereo not given) [Isocycloheximide]		-1.34
CCC1(c2ccccc2)C(=O)NC(=O)N(C)C1=O (stereo not given) [Methylphenobarbital]		-0.382
Clc1ccc(C(OCCN2CCCCC2)c2ccccc2)cc1 (stereo not given) [Cloperastine Hydrochloride]		-0.102
CNCC(O)c1ccc(O)cc1 (stereo not given)	-0.105	
CNCC(=O)c1ccc(O)c(O)c1 [Adrenalone]		0.0664
OC(c1cccs1)(c1cccs1)C1CN2CCC1CC2 (stereo not given) [Quiditene]		-0.195
CCCN(CCC)c1c([N+](=O)[O-])cc(C(F)(F)F)cc1[N+](=O)[O-] [Trifluralin]		-0.306
Cn1c(=O)c2nncnc2n(C)c1=O [Isofervenulin]		-0.289

Eight compounds out of the list, arranged by length of the SMILES, low to high:
Compound	log (HEK 293FT [1])	log (HEK 293FT [2])
CC(=O)OC1CN2CCC1CC2 (stereo not given) [Aceclidine Salicylate]		0.13
COc1ccc2[nH]cc(CCN(C)C)c2c1 [Methoxydimethyltryptamine]		0.0125
OC(c1cccs1)(c1cccs1)C1CN2CCC1CC2 (stereo not given) [Quiditene]		-0.195
CCC1(c2ccccc2)C(=O)NC(=O)N(C)C1=O (stereo not given) [Methylphenobarbital]		-0.382
Clc1ccc(C(OCCN2CCCCC2)c2ccccc2)cc1 (stereo not given) [Cloperastine Hydrochloride]		-0.102
NNC(=O)CN1C(=O)CN=C(c2ccccc2)c2cc(Br)ccc21 [Gidazepam]		0.109
COc1ccc2c(c1)[C@]13CCCC[C@@H]1[C@H](C2)N(C)CC3 [d-3-Methoxy-N-methylmorphinan hydrobromide]	-0.172	
CCCN(CCC)c1c([N+](=O)[O-])cc(C(F)(F)F)cc1[N+](=O)[O-] [Trifluralin]		-0.306
